Experimental data published in patent US11098033B2, “Ku inhibitors and their use” (INDIANA UNIVERSITY RESEARCH AND TECHNOLOGY CORPORATION, priority 2016, dated 2021).
The structures given here were assigned with low confidence; some may be wrong.

By UniProt entry, the sequences of proteins in these tests, tags left out.
UniProt P12956, whole entry: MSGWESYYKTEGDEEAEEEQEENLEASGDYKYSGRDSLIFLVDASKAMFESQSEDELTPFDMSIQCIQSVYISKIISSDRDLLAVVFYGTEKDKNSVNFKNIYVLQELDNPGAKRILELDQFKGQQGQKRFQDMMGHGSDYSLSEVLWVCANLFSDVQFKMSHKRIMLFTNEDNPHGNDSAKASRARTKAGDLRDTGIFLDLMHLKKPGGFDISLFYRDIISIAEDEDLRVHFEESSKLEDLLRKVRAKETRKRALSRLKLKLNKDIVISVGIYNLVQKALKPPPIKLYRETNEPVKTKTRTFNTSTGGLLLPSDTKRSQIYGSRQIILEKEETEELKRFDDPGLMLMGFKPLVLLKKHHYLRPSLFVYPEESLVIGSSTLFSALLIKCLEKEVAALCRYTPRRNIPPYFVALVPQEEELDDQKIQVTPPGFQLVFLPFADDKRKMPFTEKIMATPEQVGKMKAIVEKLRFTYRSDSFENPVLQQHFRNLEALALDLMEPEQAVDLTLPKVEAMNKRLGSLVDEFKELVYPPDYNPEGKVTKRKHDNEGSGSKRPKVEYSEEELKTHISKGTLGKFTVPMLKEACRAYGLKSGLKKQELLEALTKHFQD
UniProt P13010, whole entry: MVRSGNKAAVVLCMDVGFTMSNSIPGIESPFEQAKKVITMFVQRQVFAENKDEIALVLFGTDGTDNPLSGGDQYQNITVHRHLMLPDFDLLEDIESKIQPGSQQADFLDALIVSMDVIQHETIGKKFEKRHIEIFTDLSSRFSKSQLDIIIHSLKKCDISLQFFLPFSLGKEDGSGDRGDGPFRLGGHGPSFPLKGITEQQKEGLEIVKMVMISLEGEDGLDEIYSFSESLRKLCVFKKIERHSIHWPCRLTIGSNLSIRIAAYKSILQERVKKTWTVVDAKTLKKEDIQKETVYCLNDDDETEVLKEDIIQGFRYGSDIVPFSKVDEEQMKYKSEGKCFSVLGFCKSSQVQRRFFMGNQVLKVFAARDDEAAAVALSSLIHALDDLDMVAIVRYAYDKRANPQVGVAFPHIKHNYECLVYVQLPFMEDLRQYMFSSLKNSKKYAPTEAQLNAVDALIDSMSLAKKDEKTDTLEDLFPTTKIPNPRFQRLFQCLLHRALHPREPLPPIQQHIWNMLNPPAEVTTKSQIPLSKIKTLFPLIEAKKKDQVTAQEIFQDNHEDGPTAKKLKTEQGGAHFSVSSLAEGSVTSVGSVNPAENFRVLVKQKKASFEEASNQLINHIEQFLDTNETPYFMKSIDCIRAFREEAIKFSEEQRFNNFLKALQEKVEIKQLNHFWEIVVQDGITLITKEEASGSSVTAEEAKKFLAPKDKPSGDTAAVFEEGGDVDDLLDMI

What follows are molecules tested against Recombinant human Ku heterodimer (Homo sapiens, UniProt P12956+P13010) (assay: Ku-DNA binding assay). Details: Table 2, synthesized derivatives; several values in a cell = separate determinations.
`CC1=NN(c2cccc(C(=O)O)c2)C(=O)/C1=C\c1ccc(-c2ccc(Cl)c(C(=O)NCc3ccc(F)cc3)c2)s1` was tested, and the IC50 was 25 µM.
With `COc1cccc(CNC(=O)c2cc(-c3ccc(/C=C4\C(=O)N(c5ccc(C(=O)O)cc5)N=C4C)o3)ccc2Cl)c1` the IC50 was 30 µM.
Molecule `CC1=NN(c2cccc(C(=O)O)c2)C(=O)C1Cc1ccc(-c2ccc(Cl)c(C(=O)NCc3ccc(F)cc3)c2)s1` (stereo not drawn) has an IC50 of 6 µM.
`CC1=NN(c2ccc(S(N)(=O)=O)cc2)C(=O)/C1=C\c1ccc(-c2ccc(Cl)c(C(=O)NCc3ccc(F)cc3)c2)o1` showed an IC50 of 25 µM.
With `CC1=NN(c2cccc(C(=O)O)c2)C(=O)/C1=C\c1ccc(-c2ccc(Cl)c(C(=O)NCc3ccccc3Cl)c2)o1` the IC50 was 18 µM.
For `CC1=NN(c2ccc(C(=O)O)cc2)C(=O)/C1=C\c1ccc(-c2ccc(Cl)c(C(=O)NCc3ccccc3)c2)o1`, the IC50 was 22 µM.
